Primary screen of a compound library

The filed quantity is “Percent Effect” (%). How 0% and 100% were set is not recorded. Most values in the screen are low, and negative values occur. This is an unselected part of the compounds tested.

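Assay of Toxoplasma gondii numbers, read through their beta-galactosidase reporter with a colour substrate. Concentration: 50 µM. Higher reads as fewer parasites (inferred from which compounds were picked for retests). Size under these conditions: about 18,000 compounds, about 170 of them at 50% or above in at least one test.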

SMILES | effect
O=C1CCNC(=O)CC1 | 35.7%
CCN1CCCC1CNC(=O)c1cc(Cl)ccn1 (stereo not drawn) | 4.352%
COCCNC(=O)CCc1ccc(F)c(F)c1 | -4.01%
COCCCNCc1cccc(OC)c1 | -7.802%
O=C(c1ccc(Br)c(O)c1)N1CCCC1CCCO (stereo not drawn) | -0.02583%
CNC1CCN(C(=O)OC(C)(C)C)CC1 | 8.439%
CC(C(N)=O)N(C)Cc1cnn(-c2cccc(F)c2)c1 (stereo not drawn) | -4.066%
NCC1CCN(c2ccncc2)CC1 | 5.193%
COc1cccc(OC)c1OCC(O)COC(C)C (stereo not drawn) | -0.6329%
COc1ccc(C(=O)NCCSc2cnn[nH]2)cc1F | -10.9%
O=C(C1CCNCC1)N1CCc2ccccc2C1 | 2.217%
CNC(=O)c1nc(-c2ccc(C(F)(F)F)cc2)no1 | -3.497%
O=C(c1cc(Cl)ccc1OC(F)F)N1CCC(O)CC1 | 2.574%
Cc1cc(NC2CC2)n2ncnc2n1 | -40.82%
Cc1ccc(-c2nnc(SCC(=O)N(C)C)n2C)cc1 | -4.501%
CCN(C(=O)c1ccc(-c2ccco2)[nH]c1=O)C1CC1 | -6.452%
CCn1c(CN(C)CC(=O)O)nnc1[C@H]1C[C@@H](N)C1 | -0.2037%
OCc1nncn1-c1ccccc1 | 12.09%
CC(C)(CN)C1(O)CCOCC1 | 4.742%
COC(=O)c1cnc(C(C)=O)s1 | -2.695%
CCC(C)Cn1nc(COC)oc1=O (stereo not drawn) | 3.972%
CN(C)C(=O)C1CCN(Cc2ccc(F)cc2)CC1 | -14.71%
c1ccc(N2CCN3CCCCC3C2)nc1 (stereo not drawn) | 2.339%
CCc1nn(C)c(CC)c1S(=O)(=O)N(C)C(C)CN (stereo not drawn) | -3.01%
CCOc1ncnc2c1CN(CCOC)CC2 | 7.586%
CNC(=O)C(C)S(=O)(=O)Cc1cc(C)ccc1C (stereo not drawn) | -6.607%
Cn1ccnc1CCNC(=O)CN1CCCCCC1=O | -14.54%
CN(C)c1nccc(N(C)CCn2cccn2)n1 | 21.84%
CC(C)c1ccc(S(=O)(=O)C(C)C(N)=O)cc1 (stereo not drawn) | -3.645%
CCN1CCN(CC(=O)NC(C)(C)C)CC1 | 14.37%
COC(=O)c1ccc(CCN2CCCC2C(N)=O)cc1 (stereo not drawn) | -7.597%
O=C1CCCc2sccc2N1 | -21.95%
Cc1n[nH]cc1CNCC(C)(C)O | 3.083%
COC(=O)c1ccc2c(c1)N(C)C(=O)CO2 | -4.49%
O=C(NC1CC1)NC(CO)c1ccc(F)cc1 (stereo not drawn) | 2.014%
COc1ccc2c(c1)CCC(N)C2 (stereo not drawn) | 12.98%
CNC(=O)[C@@H]1CCCN1CC1CCNCC1 | 2.099%
CO[C@@H]1COCC[C@H]1NC(=O)CCc1ccc(O)cc1 | -2.675%
COC(=O)c1ccc(OCC(=O)N2CCOCC2)cc1 | -6.056%
Cc1cc(NC(=O)CN2CCC(CO)CC2)n(C)n1 | -3.652%
CCS(=O)(=O)CCN(C)CCC1CCCCN1C (stereo not drawn) | 4.248%
CCNC(=O)CSc1nc(C)c(C)n1CCOC | 11.96%
O=C(N[C@H]1COC[C@@H]1N1CCCCC1)c1cnc[nH]1 | 53.1%
CC(=O)Nc1nc(C(=O)NC2(C)CCS(=O)(=O)C2)cs1 (stereo not drawn) | -9.147%
CN(CC(=O)N1CCCC(C(F)(F)F)C1)S(C)(=O)=O (stereo not drawn) | -8.456%
COc1cc(OC)cc(N2CCCNCC2)c1 | 1.527%
CC(=O)c1cc(C(=O)N2CCCCC2)c(=O)[nH]c1C | 9.199%
COc1ccc(CN2CCN(C)CC2)c(OC)c1OC | -5.054%
O=C(CCn1cccn1)Nc1cncc(Br)c1O | -6.766%
N[C@H]1C[C@@H](c2cc(NCCc3cscn3)ncn2)C1 | -1.581%
N#CCC(=O)Nc1ccc(N2CCOCC2)cc1 | -1.188%
COCC1CCN(C(=O)CCC2CCNCC2)CC1 | -0.227%
Cc1nsc(C(=O)NCCCn2cccn2)n1 | -2.206%
O=C1NCCNC1c1c(F)cccc1Cl (stereo not drawn) | -20.65%
CCC(C(=O)Nc1ncccc1O)N(C)C (stereo not drawn) | 7.985%
CC(C(=O)Nc1sccc1C(N)=O)N1CCCC1 (stereo not drawn) | -1.634%
CCNC(=O)COC(=O)c1n[nH]c2ccccc12 | -26.15%
CC(O)C(=O)Nc1ccc(Cl)c(OC(F)F)c1 (stereo not drawn) | -7.05%
CCN(Cc1ccoc1)C(=O)[C@@H](N)CC(C)C | -10.02%
CC(O)CN(CCCC#N)Cc1ccccc1 (stereo not drawn) | -14.39%
CCC1=NOC(CN2CCN(c3nc[nH]n3)CC2)C1 (stereo not drawn) | -15.17%
c1nsnc1-c1nc(C2CCCO2)no1 (stereo not drawn) | -4.989%
CC(C)CN(C)CCN1CC2(CCN(C)CC2)OC1=O | -16.71%
CNC(=O)CCS(=O)(=O)Cc1nc(C(C)C)no1 | 0.8842%
O=C(CCc1ccsc1)NCCN1CCS(=O)(=O)CC1 | 7.173%
CN1C(=O)C[C@@H](C(N)=O)[C@@H]1c1ccnn1C | -12.55%
CCN1CCCC1Cn1c(=O)[nH]c2ccccc2c1=O (stereo not drawn) | 1.527%
CC1CN(c2ccc(CN)cn2)CCO1 (stereo not drawn) | -5.604%
N#Cc1ccc(S(=O)(=O)N2CCCC[C@@H]2CO)cc1 | 0.5253%
CSCCC(O)C(=O)NCCc1scnc1C (stereo not drawn) | 25.02%
N[C@H]1CN(C(=O)Cc2cc(F)ccc2F)C[C@@H]1C1CC1 | -1.557%
CCC1(CO)CCCN(CCn2cc(Cl)cn2)C1 (stereo not drawn) | -7.388%
OC(COc1ccc2c(c1)OCO2)CN1CCCCC1 (stereo not drawn) | -8.735%
COc1ccc(CNCC2CCS(=O)(=O)C2)cc1Br (stereo not drawn) | -9.761%
CCC(N)(CC)CNS(=O)(=O)N1CCCCC1 | -2.619%
CS(=O)(=O)N1CCCCC1CNC(=O)c1ccccc1 (stereo not drawn) | -15.84%
Cc1ccc(N2CCCC(N)C2=O)cc1 (stereo not drawn) | -4.611%
CC1(C)CNC(CO)C1 (stereo not drawn) | 3.886%
Cc1cc(NC(=O)NCCCN2CCCC2=O)no1 | 1.028%
c1ncc(-c2nc3c([nH]2)CCNC3)cn1 | 3.24%
CC1(C)CCN1C(=O)c1cccc2c1OCCO2 | 5.016%
CNC(C)(C)c1ccc2c(c1)OCO2 | -13.39%
COc1ccc([S+]([O-])Cc2noc(C)n2)cc1 (stereo not drawn) | -23.19%
COc1cc(Cl)ccc1CN | 12.35%
N[C@@H]1CC[C@@H](NC(=O)c2ccc(SCCO)cc2)C1 | -12.54%
CC(O)(CN)c1cccs1 (stereo not drawn) | 2.031%
COC(=O)CCCNC(=O)COc1cccc(OC)c1 | -5.751%
Cc1c(Br)cnc(N)c1N | -6.554%
COC(C(=O)N(C)C)c1ccccc1 (stereo not drawn) | 32.91%
O=C(c1ccsc1)N1CCCN(c2cccnn2)CC1 | 5.344%
CC(C)n1cc(CN2CCc3n[nH]c(=O)n3CC2)cn1 | -21.18%
Cc1ccc(N)nn1 | -11.5%

Once more, the final 7:

- CC(O)(CN)c1cccs1 (stereo not drawn) : 2.031%
- COC(=O)CCCNC(=O)COc1cccc(OC)c1 : -5.751%
- Cc1c(Br)cnc(N)c1N : -6.554%
- COC(C(=O)N(C)C)c1ccccc1 (stereo not drawn) : 32.91%
- O=C(c1ccsc1)N1CCCN(c2cccnn2)CC1 : 5.344%
- CC(C)n1cc(CN2CCc3n[nH]c(=O)n3CC2)cn1 : -21.18%
- Cc1ccc(N)nn1 : -11.5%

Measurements from “University of Dundee, Small-Polar-MMV Screening Library” (2021), ChEMBL document CHEMBL3988442.